Data published in publication PMC12148026.
These are yes or no findings as the source states them, for the method shown. In cells and extracts the contact can be indirect. Binding calls can cover weak binding; strength is not graded here. Where a sequence is shown, tags or fusion partners need not be part of it.

B1: C-terminal fragment of Ulk4-EE from amino acids 1004–1275, Flag-tagged (C272-EE–Fg) (domain or fragment, UniProt Q96C45 1004-1275)
chain: VPAYALKLLVAMTEHNPEFERLVEESKLIPLIFEVTLEHQESILGNTMQSVIALLSNLVACKDSNMELLYEQGLVSHICNLLTETATLCLDVDNKNNNEMAAPLLFSLLDILHSMLTYTSGIVRLALQAQKSGSGEDPQAAEDLLLLNRPLTDLISLLIPLLPNEDPEIFDVSSKCLSILVQLYGGENPDSLSPENVEIFAHLLTSKEDPKEQKLLLRILRRMITSNEKHLESLKNAGSLLRALERLAPGSGSFADSAVAPLALEILQAVGH

Biological target: SIM-deficient human Ulk4, HA-tagged (Ulk4-ΔSIM–HA) (human) (UniProt Q96C45)
Test: co-IP; HEK293T cells transfected with Fg-tagged and HA-tagged Ulk4 constructs, immunoprecipitation and western blot with the indicated antibodies (which tag was precipitated is not given)

Molecule | binding
Flag-tagged Ulk4-EE (Ulk4-EE–Fg), phospho-mimetic human Ulk4 T1021E/T1023E (from UniProt Q96C45 1-1275) | binds
B1 | no binding
